# Assay results from PubChem BioAssay AID504834 (National Center for Advancing Translational Sciences (NCATS), 2011).
# Among all 320,000 compounds or so, about 22,000 (6.9%) were called active. Inconclusive means that the source gave no clear call. Such entries were picked first, then a sample of the others. Calls come from the whole dose curve; as a rule, active = well fitted inhibition curve with a large enough effect; inconclusive = small, poorly fitted or top-dose-only effect, or another doubt; inactive = no such curve, though single readings can be large or run the other way. Where the call is inconclusive, the potency comes from a doubtful curve fit.
# Experiment: Primary qHTS for delayed death inhibitors of the malarial parasite plastid, 96 hour incubation
# Settings: P. falciparum luciferase reporter growth; series mostly up to 28.7 µM
# In short: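 P. falciparum expressing integrated firefly luciferase grown in erythrocytes (2% hematocrit, 0.05% parasitemia final) with compounds for 96 hours at 37 C, 5% CO2. Growth inhibition read as loss of luminescence after adding luciferase detection reagent.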
# % is set by controls: 0 for no effect and ±100 for the full control effect; potency is the fitted concentration of half-maximal effect.
Compound,Potency,"activity change, negative = inhibition"
Cc1ccc(-n2c(=O)c3sccc3n(CC(=O)NCc3ccco3)c2=O)cc1F,"inconclusive: 13.1 µM [inhibitor, single point]",–
CCC1=NN(C(=O)C(=O)Nc2ccc(OC)cc2)C(O)(C(F)(F)F)C1 (centres undefined),"inconclusive: 3.7 µM [inhibitor, partial curve]",–
CC(Oc1ccc(Br)cc1)C(=O)Nc1cc(S(=O)(=O)N2CCOCC2)ccc1N1CCCC1 (centres undefined),active: 13.1 µM,–
O=C(OC(C(=O)Nc1ccc(Cl)cc1C(F)(F)F)c1ccccc1)C1=COCCO1 (centres undefined),"inconclusive: 18.5 µM [inhibitor, single point]",–
CCOC(=O)Cn1c(=O)cc(C)c2ccccc21,inactive,–
Cc1ccc(S(=O)(=O)N2Cc3ccccc3CC2C(=O)Nn2cnnc2)cc1 (centres undefined),inactive,–
CCCc1nnc(NC(=O)CCC(=O)N2CCN(C3c4ccccc4-c4ccccc43)CC2)s1,inactive,–
COc1cc(SSc2cc(OC)cc([N+](=O)[O-])c2N)c(N)c([N+](=O)[O-])c1,active: 9.28 µM,–
CCOc1ccc(-c2c(C(=O)N/N=C/c3ccc(C)cc3)nnn2-c2nonc2N)cc1,inactive,–
CCOC(=O)c1[nH]c(C)c(C(=O)NC2CCCC2)c1C,inactive,–
COc1ccc(C)cc1S(=O)(=O)n1cnc2ccccc21,inactive,–
CCOc1ccc(NC(=O)COc2ccccc2C(=O)NCc2ccccc2)cc1,"inconclusive: 9.28 µM [inhibitor, single point]",–
COc1cc(OC)cc(C(=O)NN2CCOCC2)c1,"inconclusive: 0.147 µM [inhibitor, full curve, poor fit]",–
CC1CCCCN1S(=O)(=O)c1ccc2c(c1)CCN2C(=O)CCC(=O)O (centres undefined),"inconclusive: 2.62 µM [inhibitor, full curve]",–
C(=C\c1ccccc1)/C=N/Nc1nncc(-c2ccccc2)n1,inactive,–
O=C(CSCC(=O)N1CCN(c2ccccc2)CC1)Nc1nc(-c2ccc(Cl)s2)cs1,"inconclusive: 20.8 µM [inhibitor, single point]",–
CCC(=O)NC(c1cc(Cl)c2ccccc2c1O)C(C)C (centres undefined),"inconclusive: 10.4 µM [inhibitor, single point]",–
N#CNC1=NCN(Cc2ccccc2)CN1,"inconclusive: 18.5 µM [inhibitor, single point]",–
Cc1ccc(Nc2c(F)c(F)c(F)c(F)c2C(=O)O)c(C)c1,"inconclusive: 10.4 µM [inhibitor, single point]",–
COCCN1C(=O)c2cc(C(=O)Nc3cccc(F)c3)ccc2C1Nc1cccc(F)c1 (centres undefined),"inconclusive: 11.7 µM [inhibitor, single point]",–
Cc1cccc(C(=O)OCN2C(=O)c3ccccc3C2=O)c1[N+](=O)[O-],inactive,–
CCC/C(O)=C1\C(=O)CC(c2ccccc2)CC1=NC (centres undefined),"inconclusive: 9.28 µM [inhibitor, single point]",–
Cc1ccc(/C=C2/Sc3ccc(C(=O)NCc4ccccn4)cc3NC2=O)cc1,"inconclusive: 14.7 µM [inhibitor, partial curve]",–

Compound,Potency,"activity change, negative = inhibition"
O=C(Nc1cc(S(=O)(=O)N2CCOCC2)ccc1N1CCCC1)C1CC1,inactive,–
CCc1ccc(Nc2ncc3c(n2)CC(c2ccco2)CC3=O)cc1 (centres undefined),"inconclusive: 18.5 µM [inhibitor, single point]",–
COc1ccc([N+](=O)[O-])cc1-c1[nH]c(-c2ccc(C(=O)O)cc2)nc1-c1ccccc1,"inconclusive: 10.4 µM [inhibitor, single point]",–
Cc1cc(C)c(C(=O)N2CCCC(Nc3ccc(C)c(C)c3)C2)o1 (centres undefined),"inconclusive: 13.1 µM [inhibitor, single point]",–
C=CCc1c(NCCO)nc(C)[nH]c1=O,"inconclusive: 3.29 µM [inhibitor, full curve]",–
COc1ccc(C2N(c3ccc(Cl)cc3)N=C(C(C)=O)N(C)N2C(C)=O)cc1 (centres undefined),"inconclusive: 0.657 µM [inhibitor, full curve, poor fit]",–
CN(C(=O)COC(=O)/C=C/c1ccc2ccccc2n1)c1c(N)n(Cc2ccccc2)c(=O)[nH]c1=O,"inconclusive: 18.5 µM [inhibitor, single point]",–
O=C(Nc1nc2ccc(F)cc2s1)c1cccs1,"inconclusive: 18.5 µM [inhibitor, single point]",–
Cc1ccccc1NC(=O)/C(C#N)=C\c1cn(CC(=O)O)c2ccccc12,"inconclusive: 7.38 µM [inhibitor, partial curve, poor fit]",–
COc1ccc(Cc2nnc(NC(=O)c3cccc([N+](=O)[O-])c3C)s2)cc1,active: 0.465 µM,–
CCOC(=O)c1c(-c2cccs2)csc1N,inactive,–
CC(C)C(NC(=O)c1ccc(C(C)(C)C)cc1)C(=O)NCC(c1ccccc1)N(C)C (centres undefined),"inconclusive: 14.7 µM [inhibitor, single point]",–
CC(C)C(=O)NNC(=O)c1c(O)c2ccccc2[nH]c1=O,"inconclusive: 2.62 µM [inhibitor, full curve]",–
CCN1CCN(CCOc2ccc(Cl)cc2)CC1,"inconclusive: 5.22 µM [inhibitor, partial curve, poor fit]",–
C/C(=C\C(=O)c1ccncc1)Nc1ccccc1O,"inconclusive: 18.5 µM [inhibitor, single point]",–
COc1ccccc1C(=O)CSc1nnc(-c2ccco2)o1,"inconclusive: 18.5 µM [inhibitor, single point]",–
CC(=O)c1cc(NC(=O)c2ccc(C)cc2)c(=O)oc1C,inactive,–
CCOc1ccccc1NC(=O)C1C2C=CC(O2)C1C(=O)O (centres undefined),inactive,–
CCc1ccccc1NC(=O)CN1CCN(C(=O)COc2ccccc2C#N)CC1,"inconclusive: 11.7 µM [inhibitor, single point]",–
Cc1ccc(-c2csc3ncnc(-n4nc(C)cc4N)c23)cc1,"inconclusive: 16.5 µM [inhibitor, partial curve, poor fit]",–
O=C(Cn1nc(-c2ccccc2)c2ccccc2c1=O)NCCO,inactive,–
O=C(CSc1nccc(=O)[nH]1)c1ccccc1Br,"inconclusive: 9.28 µM [inhibitor, single point]",–
OC(CNCCc1ccc(Cl)cc1Cl)COc1ccccc1 (centres undefined),"inconclusive: 18.5 µM [inhibitor, single point]",–

Compound,Potency,"activity change, negative = inhibition"
CCn1c(Cc2ccccc2)nnc1SCc1nc2ccccc2c(=O)[nH]1,inactive,–
CC(=O)C1=C(O)C(=O)N(c2ccc(O)cc2)C1c1cccc(F)c1 (centres undefined),"inconclusive: 16.5 µM [inhibitor, single point]",–
C/C(=N\NC(=O)Cc1ccccc1Cl)c1cccnc1,active: 1.65 µM,–
CCOc1cc(C2C3=C(CCCC3=O)N(CCC(=O)O)C3=C2C(=O)CCC3)ccc1OS(=O)(=O)c1ccc(C)cc1,"inconclusive: 18.5 µM [inhibitor, single point]",–
Cc1nc(N2CCN(c3ccccn3)CC2)c2c(C)c(C(=O)Nc3ccccc3F)sc2n1,"inconclusive: 18.5 µM [inhibitor, single point]",–
CN(CC(=O)Nc1ccc(F)cc1)C(=O)COc1ncnc2ccccc12,"inconclusive: 13.1 µM [inhibitor, single point]",–
COc1cccc(CC2(CO)CCN(C(=O)NCCc3ccccc3)CC2)c1,"inconclusive: 18.5 µM [inhibitor, single point]",–
COc1cccc(-c2ncc3ccccc3c2COC(=O)N(C)C)c1,"inconclusive: 3.7 µM [inhibitor, partial curve, poor fit]",–
Cc1ccc(C2C3=C(NCCN=C3c3ccccc3)C(=O)N2c2ccccc2)cc1 (centres undefined),"inconclusive: 13.1 µM [inhibitor, partial curve, poor fit]",–
Cc1ccc(NC(=O)Cn2cnc3c(cnn3C(C)(C)C)c2=O)cc1,"inconclusive: 5.86 µM [inhibitor, partial curve, poor fit]",–
C=C(C)c1cccc(C(C)(C)NC(=O)N2CCN(CC(N)=O)CC2)c1,–,inactive: 4.2% [at 5.75 µM]
Cc1cccc(CN2CCN(Cc3ccco3)CC2)c1,"inconclusive: 18.5 µM [inhibitor, single point]",–
CCOCC(=O)Nc1nnc(SCCOC)s1,"inconclusive: 10.4 µM [inhibitor, single point]",–
O=C1c2ccccc2C(=O)N1CCc1ccccn1,inactive,–
CN(C)c1cc(NC(=O)CN2CCCC2)c2ccccc2n1,"inconclusive: 16.5 µM [inhibitor, single point]",–
CC(O)CNCCCOc1cccc(C(F)(F)F)c1 (centres undefined),"inconclusive: 0.329 µM [inhibitor, partial curve, poor fit]",–
COc1ccc(NS(=O)(=O)c2cccc(NC(=O)c3ccc(S(=O)(=O)N4CCCCCC4)cc3)c2)cc1,active: 13.1 µM,–
CCOc1ccc(-n2c(=O)c3sccc3n(CC(=O)NCC3CCCO3)c2=O)cc1 (centres undefined),"inconclusive: 11.7 µM [inhibitor, partial curve, poor fit]",–
COc1ccc(C(C)(C)C)cc1NC(=O)Nc1ccc2c(c1)OCO2,inactive,–
Cc1ccc(-n2ncc3c2CC(C)(C)CC3NC(=O)c2c(C)noc2C)cc1 (centres undefined),"inconclusive: 10.4 µM [inhibitor, single point]",–
COc1ccccc1N(CC(O)COc1ccccc1)S(=O)(=O)c1ccccc1 (centres undefined),"inconclusive: 10.4 µM [inhibitor, single point]",–
CC1CCCCC1NC(=O)CN1C(=O)NC(C)(c2cc(F)ccc2F)C1=O (centres undefined),"inconclusive: 18.5 µM [inhibitor, single point]",–
COC(=O)C1=C(C)Nc2nnnn2C1c1cccs1 (centres undefined),"inconclusive: 4.15 µM [inhibitor, single point]",–

# Sorted by length of the SMILES (ascending): part of the list above
Compound,Potency,"activity change, negative = inhibition"
CC(O)CNCCCOc1cccc(C(F)(F)F)c1 (centres undefined),"inconclusive: 0.329 µM [inhibitor, partial curve, poor fit]",–
CN(CC(=O)Nc1ccc(F)cc1)C(=O)COc1ncnc2ccccc12,"inconclusive: 13.1 µM [inhibitor, single point]",–
Cc1ccc(-n2ncc3c2CC(C)(C)CC3NC(=O)c2c(C)noc2C)cc1 (centres undefined),"inconclusive: 10.4 µM [inhibitor, single point]",–
Cc1nc(N2CCN(c3ccccn3)CC2)c2c(C)c(C(=O)Nc3ccccc3F)sc2n1,"inconclusive: 18.5 µM [inhibitor, single point]",–
